Measured values from patent US12350260B2 (priority 2019, dated 2025).

Test system: primary human epidermal keratinocytes
Type: cell-based

Which “average ratio of the P-CTX-2-mediated calcium signal (ΔF/F0)” value does the source give for `CCC(C)[C@H](NC(=O)[C@H](CC1CCCCC1)NC(=O)c1ccno1)C(=O)N1CCC2(CCc3ccccc32)CC1` (some centres unmarked) [GB83] here?
The value was 0.33±0.08.

And the “decrease of the average ratio of the P-CTX-2-mediated calcium signal” value?
Its value is “approximately 70%”.
